PubChem BioAssay AID1347076 (National Center for Advancing Translational Sciences (NCATS), 2019)
The campaign covered roughly 400,000 compounds. About 13,000 (3.2%) were called active. The shares of active, inactive and inconclusive entries below differ from those in the screen. Calls follow the shape of the dose curve; as a rule, active = well fitted cell-killing curve with a large enough effect; inconclusive = small, poorly fitted or top-dose-only effect, or effect the other way; inactive = flat fitted curve, though single readings scatter. Potencies of inconclusive entries are doubtful fits and often do not repeat. A structure can be active in one record and inactive in another.

Assay: qHTS assay for MDR1-selective chemotherapeutics: Primary screen using the drug-selected MDR subline cells KB-V1; also: nearly all actives have a fitted effect of over 60% in size
Conditions: KB-V1 MDR cells viability, CellTiter-Glo, 72 h; activity change, negative = cytotoxicity: at 46.1 µM (top of the series)
How it was run: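 Cytotoxicity toward P-gp-expressing KB-V1 cells was determined as loss of CellTiter-Glo luminescence after 72 h at 37 degrees C. Compounds were tested in quantitative HTS format across a concentration range, with curves fitted to normalized data.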
% is scaled to controls: 0 for no effect and ±100 for the full control effect; potency is read from the fitted curve at half-maximal effect.

Row | SMILES | activity change, negative = cytotoxicity | Potency
1 | COc1cccc(-n2c(SCC(=O)Nc3ccc4c(c3)OCO4)nc3c([nH]c4ccccc43)c2=O)c1 | inactive: -10.1% | –
2 | O=C(OCc1c(F)cccc1Cl)c1cccc(S(=O)(=O)N2CCOCC2)c1 | – | inconclusive: 13 µM [cytotoxic, partial curve]
3 | COc1cc(OC)cc(C(=O)N2CCN(C(=O)COc3ccc(C)cc3)CC2)c1 | – | inconclusive: 14.6 µM [cytotoxic, partial curve, poor fit]
4 | O=C(CN1C(=O)c2cccc3cccc(c23)C1=O)N1CCCCCC1 | – | inconclusive: 3.26 µM [cytotoxic, partial curve, poor fit]
5 | CC(NC(=O)c1ccc(-c2cc(C(F)(F)F)ccc2Cl)o1)c1ccccc1 (configuration not stated) | – | inconclusive: 29.1 µM [cytotoxic, partial curve, poor fit]
6 | O=C(Nc1ccc(S(=O)(=O)N2CCCCC2)cc1)C1CC(=O)N(c2ccc(Cl)cc2)C1 (configuration not stated) | – | inconclusive: 18.4 µM [cytotoxic, single point]
7 | O=C(O)c1ccc(COc2ccc(CO)cc2Cl)cc1 | inactive: -5.48% | –
8 | N#Cc1cc2c(nc1SCc1ccc(Cl)cc1)CCCC2 | inactive: 2.67% | –
9 | CCn1cc(C(=O)NC2CCCCC2C)c(=O)c2ccc(C)nc21 (configuration not stated) | inactive: -15.4% | –
10 | S=C(Nc1ccc(Oc2ccccc2)cc1)NC1CCCCCC1 | – | inconclusive: 29.1 µM [cytotoxic, single point]
11 | CCCS(=O)(=O)NC(=O)C1(C)CCCN(C(=O)c2cc(C)on2)C1 (configuration not stated) | inactive: 4.37% | –
12 | O=C(C[n+]1ccccc1Br)c1ccc(Cl)cc1 | inactive: 22% | –
13 | CCOc1ccc(N2C(=O)CC(N(Cc3ccco3)C(=O)CCC(=O)O)C2=O)cc1 (configuration not stated) | – | inconclusive: 11.6 µM [rising, partial curve]
14 | c1ccc2nc(-c3nccs3)ccc2c1 | – | inconclusive: 29.1 µM [rising, single point]
15 | COC(=O)c1c(-c2ccccc2)c[nH]c1C | – | inconclusive: 6.51 µM [cytotoxic, partial curve, poor fit]
16 | CSc1nnc2c3cc(F)ccc3n(C)c2n1 | – | inconclusive: 20.6 µM [cytotoxic, single point]
17 | CCc1c(-c2ccc(OC)cc2)ncn1Cc1cccc(-c2ccccc2)c1 | – | active: 16.4 µM
18 | O=C(Cn1cc(SCc2ccc(Cl)cc2)c2ccccc21)N1CCOCC1 | inactive: 0% | –
19 | Cc1nn(Cc2ccccc2Cl)c(C)c1NC(=O)c1ccn(C)n1 | – | inconclusive: 18.4 µM [cytotoxic, partial curve, poor fit]
20 | Cc1nn(Cc2cccc(C(=O)Nn3cc([N+](=O)[O-])cn3)c2)c(C)c1[N+](=O)[O-] | – | inconclusive: 18.4 µM [cytotoxic, single point]
21 | CCCCN(CC)C(=O)CN(C)S(=O)(=O)c1cccc2nsnc12 | – | inconclusive: 20.6 µM [cytotoxic, partial curve]
22 | CC(C)c1ccccc1NC(=O)CCc1nc2ccccc2s1 | – | active: 18.4 µM
23 | CCC(C)(C)NC(=O)C(c1ccc(OC)cc1)N(C(=O)CCC(=O)Nc1cc(C)on1)C(C)(C)C (configuration not stated) | – | inconclusive: 13 µM [cytotoxic, partial curve, poor fit]
24 | CNC(=S)N/N=C/c1c(C)nn(-c2cccc(Cl)c2)c1Cl | inactive: -2.52% | –

Row | SMILES | activity change, negative = cytotoxicity | Potency
25 | COc1ccccc1-c1cc(C(F)(F)F)nc(S(=O)(=O)CCCC(=O)NCc2ccc(F)cc2)n1 | inactive: -29.2% | –
26 | Cc1ccc(CCNC(=O)CNC(=S)N(Cc2ccccc2)Cc2cccnc2)cc1 | – | inconclusive: 7.31 µM [cytotoxic, partial curve]
27 | CN(C)C1=NCCN1CC1CCCC1 | inactive: 17.4% | –
28 | O=S1(=O)[C@H]2C[C@@H]3C=C[C@@]2(CN1Cc1ccccc1F)O3 | – | inconclusive: 6.51 µM [rising, partial curve]
29 | CCOC(=O)c1ccc(N2CCN(c3ccccc3F)CC2)c(NC(=O)Nc2cccc(OC)c2)c1 | – | inconclusive: 7.31 µM [cytotoxic, partial curve]
30 | C=CCN1CC[C@@H](O)C(=C)S1(=O)=O | inactive: 3.82% | –
31 | O=C(NCc1cn(-c2ccccc2)nc1-c1ccc(F)cc1)c1cccc([N+](=O)[O-])c1 | – | inconclusive: 16.4 µM [cytotoxic, partial curve, poor fit]
32 | S=C(Nc1ccc(Br)cc1Cl)Nn1cnnc1 | – | inconclusive: 13 µM [rising, partial curve, poor fit]
33 | CC(=O)c1ccc(OCCCC(=O)Nc2cc(S(=O)(=O)N(C)C)ccc2C)cc1 | – | active: 23.1 µM
34 | COc1ccc(NC(=O)CSc2nc3ccccc3n2CC(=O)N(C)C2CCCCC2)cc1 | inactive: -4.2% | –
35 | CC1=CC(c2ccccc2)n2nnnc2N1 (configuration not stated) | – | inconclusive: 29.1 µM [rising, single point]
36 | COc1ccc(CCOC(=O)c2ccc(N)c([N+](=O)[O-])c2)cc1 | inactive: -8.48% | –
37 | CCN(c1ccccc1)S(=O)(=O)c1ccc(OC)c(NC(=O)c2cccs2)c1 | – | inconclusive: 20.6 µM [cytotoxic, single point]
38 | CCc1nnc(NC(=O)C2(C)COC(c3ccccc3)OC2)s1 (configuration not stated) | – | inconclusive: 32.6 µM [cytotoxic, single point]
39 | COc1cnc(N(C)C)nc1Sc1ccc(Cl)cc1 | inactive: 0.861% | –
40 | CC1CC(C)(C)CC2(C1)NC(=O)N(CC(=O)OCc1ccc(Br)cc1)C2=O (configuration not stated) | – | active: 16.4 µM
41 | COc1ccccc1-c1nnc(Sc2nc([N+](=O)[O-])nn2C)o1 | – | inconclusive: 23.1 µM [cytotoxic, single point]
42 | CCCn1c(=O)n(C)c(=O)c2c(SCC(=O)Nc3cc(C)on3)nc(C(C)(C)C)nc21 | inactive: -60.6% | –
43 | CC(C)(C)C(=O)COC(=O)c1ccccc1O | – | inconclusive: 29.1 µM [rising, single point]
44 | Clc1ncccc1-c1nc2ccccc2s1 | – | inconclusive: 29.1 µM [cytotoxic, single point]
45 | COc1ccc(NS(=O)(=O)c2c(C)n(C)c(=O)n(C)c2=O)cc1 | – | inconclusive: 29.1 µM [rising, single point]
46 | Cn1c(=O)c2c(nc(N3CCOCC3)n2Cc2ccccc2F)n(C)c1=O | inactive: 13.6% | –
47 | CN(Cc1ccc(Cl)c(Cl)c1)C(=O)C1CSC2(C)CCC(=O)N12 (configuration not stated) | – | inconclusive: 16.4 µM [cytotoxic, single point]
48 | O=[N+]([O-])c1ccc(/C=N/N/C(=N/c2ccccn2)c2ccccn2)cc1 | – | inconclusive: 18.4 µM [cytotoxic, single point]

Row | SMILES | activity change, negative = cytotoxicity | Potency
49 | CSc1nc(N(C)NC(=O)c2ccc(Cl)cc2)c2ccccc2n1 | – | active: 2.91 µM
50 | Clc1ccc(OCc2nn3c(C4CCCCC4)nnc3s2)c(Cl)c1 | – | inconclusive: 20.6 µM [cytotoxic, partial curve]
51 | COc1ccc(F)c(CN2CCN(CCc3ccccc3)C(CCO)C2)c1 (configuration not stated) | – | inconclusive: 6.51 µM [cytotoxic, partial curve, poor fit]
52 | COc1ccc(C(CNC(=O)CCNS(=O)(=O)c2ccc(Br)cc2)N2CCCC2)cc1 (configuration not stated) | – | inconclusive: 16.4 µM [cytotoxic, partial curve, poor fit]
53 | NC(Cc1ccc(C(F)(F)F)cc1)c1csc(Nc2nccc(C(F)(F)F)n2)n1 (configuration not stated) | – | active: 23.1 µM
54 | NCC(O)CN(c1ccccc1)c1ccccc1 (configuration not stated) | – | inconclusive: 8.2 µM [rising, partial curve, poor fit]
55 | Cc1cc(OC(C)C(=O)NCC2CCCO2)cc(C)c1Cl (configuration not stated) | inactive: -13.4% | –
56 | CCN1CCN(Cc2c(OC)ccc3ccccc23)CC1 | – | inconclusive: 20.6 µM [cytotoxic, partial curve]
57 | CCCNC(=O)c1ccc(Cn2c(SCC(N)=O)nc3ccccc3c2=O)cc1 | – | inconclusive: 29.1 µM [rising, single point]
58 | Cc1ccc(S(=O)(=O)Nc2ccccc2)cc1[N+](=O)[O-] | – | inconclusive: 16.4 µM [cytotoxic, single point]
59 | COc1ccc(SC[C@H](C)CN2CC[C@H](C(C)(C)C)CCC2=O)cc1 | – | active: 14.6 µM
60 | CN(CC(=O)Nc1c(Cl)cccc1Cl)C(=O)Cc1ccc2c(c1)CCC2 | – | inconclusive: 16.4 µM [cytotoxic, partial curve]
61 | O=C(O)c1ccc(NCc2cccc(Br)c2)cc1 | – | inconclusive: 13 µM [rising, single point]
62 | O=C(c1cccc(Cl)c1)c1nn(-c2ccccc2)c(=O)cc1C(F)(F)F | – | active: 23.1 µM
63 | CCCCCCCC(=O)NNC(=O)c1c(O)c2ccccc2n(CC)c1=O | – | active: 18.4 µM
64 | Cc1onc(-c2c(F)cccc2Cl)c1-c1nnc(-c2cccc3ccccc23)o1 | – | inconclusive: 0.411 µM [rising, full curve, poor fit]
65 | Cc1cc(OCC(=O)N2CCN(c3ncccn3)CC2)ccc1Cl | – | inconclusive: 18.4 µM [cytotoxic, single point]
66 | O=C(Nc1ccccc1)C1=C[C@@H](C2CC2)C[C@@H](OCc2ccc(CO)cc2)O1 | inactive: -28.7% | –
67 | COc1cc(CC(=O)NC(c2ccccc2)c2ccccc2)cc(OC)c1OC | – | inconclusive: 18.4 µM [cytotoxic, partial curve, poor fit]
68 | CCOc1ccccc1C(=O)N1CCc2cc(OC)c(OC)cc2C1COc1ccc(OC)cc1 (configuration not stated) | – | inconclusive: 2.59 µM [cytotoxic, partial curve, poor fit]
69 | O=c1[nH]cnc2c1ncn2[C@@H]1O[C@H](COS(=O)(=O)O)[C@@H](O)[C@H]1O | inactive: -0.268% | –
70 | Cc1ccc(-c2nc3cccc(C)n3c2Nc2ccc3c(c2)OCO3)o1 | inactive: 9.89% | –
71 | O=c1c2cc([N+](=O)[O-])ccc2sn1-c1ccccc1 | inactive: -9.07% | –
72 | Cc1sc(NC(=O)COc2ccccc2)c(C#N)c1-c1ccccc1 | – | active: 16.4 µM

Complete entries, looked up by structure. Order of values: activity change, negative = cytotoxicity | Potency
`O=S1(=O)[C@H]2C[C@@H]3C=C[C@@]2(CN1Cc1ccccc1F)O3` in the list: – | inconclusive: 6.51 µM [rising, partial curve]
`Cc1ccc(CCNC(=O)CNC(=S)N(Cc2ccccc2)Cc2cccnc2)cc1` in the list: – | inconclusive: 7.31 µM [cytotoxic, partial curve]
`CCCn1c(=O)n(C)c(=O)c2c(SCC(=O)Nc3cc(C)on3)nc(C(C)(C)C)nc21` in the list: inactive: -60.6% | –
`CSc1nnc2c3cc(F)ccc3n(C)c2n1` in the list: – | inconclusive: 20.6 µM [cytotoxic, single point]

Pulled one by one from the list above:
Row | SMILES | activity change, negative = cytotoxicity | Potency
63 | CCCCCCCC(=O)NNC(=O)c1c(O)c2ccccc2n(CC)c1=O | – | active: 18.4 µM
49 | CSc1nc(N(C)NC(=O)c2ccc(Cl)cc2)c2ccccc2n1 | – | active: 2.91 µM
